Measurements as given in PMC7228087.
These are yes or no findings as the source states them, for the method shown. For part of these data: Binding seen in cells or lysates may run through a third protein. Some results given as binding are weak or reduced against the parent protein; the word gives no strength. For part of these data: Tags and fused reporters may be left off the sequences shown.

By UniProt entry, the sequences of proteins in these tests, tags left out.
UniProt P61829: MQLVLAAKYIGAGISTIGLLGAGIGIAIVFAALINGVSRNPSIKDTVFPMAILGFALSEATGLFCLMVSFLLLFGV

What was measured:
[1] = target: T1, Atp6 with a tandem hemagglutinin plus poly histidine tag (S. cerevisiae) (UniProt P00854); test: pull-down; Atp6-HApH held on Ni-NTA beads; 2% digitonin extracts of mitochondria pulse-labelled with 35S-methionine/cysteine for 5 or 10 min and chased for 0, 30 or 60 min; SDS-PAGE, BN-PAGE and 2D gels
T1 sequence: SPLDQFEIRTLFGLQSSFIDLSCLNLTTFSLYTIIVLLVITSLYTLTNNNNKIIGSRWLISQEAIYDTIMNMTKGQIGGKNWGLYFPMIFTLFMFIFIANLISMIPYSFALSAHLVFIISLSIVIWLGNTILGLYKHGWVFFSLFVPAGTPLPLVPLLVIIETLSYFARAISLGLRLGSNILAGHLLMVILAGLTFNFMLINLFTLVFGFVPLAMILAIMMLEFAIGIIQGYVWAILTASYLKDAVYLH

[2] = target: Atp9 (S. cerevisiae (endogenous in mitochondria)) (UniProt P61829); test: cross-linking; Atp9 ring of the ATP synthase: submitochondrial particles treated with 1.5 mM CuP for 1 h; with or without 5% TCA before SDS sample buffer without beta-mercaptoethanol; SDS-PAGE on a 15% gel, Western blot
[3] = target: Atp9 (S. cerevisiae (endogenous in mitochondria)) (UniProt P61829); test: native gel or EMSA; 2% digitonin extract of mitochondria labelled in organello with 35S-methionine/cysteine; BN-PAGE on a 5-20% gel in the 1st dimension, SDS-PAGE on a 12% gel in the 2nd dimension

Measured: binding

Atp9 (from UniProt P61829 1-76)
binds: [1] | [2] | [3]
